Our source for the binding values is paper PMC9443474.

Protein sequences, listed by entry. Tags and fused reporters are not part of them.
UniProt Q01105: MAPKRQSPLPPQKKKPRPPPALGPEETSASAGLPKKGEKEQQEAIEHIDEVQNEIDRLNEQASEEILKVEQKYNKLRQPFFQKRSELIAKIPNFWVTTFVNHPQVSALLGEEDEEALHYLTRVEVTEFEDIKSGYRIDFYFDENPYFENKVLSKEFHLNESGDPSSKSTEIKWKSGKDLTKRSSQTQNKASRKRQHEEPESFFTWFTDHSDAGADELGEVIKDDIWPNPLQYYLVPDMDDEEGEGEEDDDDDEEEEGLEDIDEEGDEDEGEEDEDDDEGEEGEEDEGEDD

The target in assay [1] is T1, TRIM4 (bait of the mass spectrometry-based formaldehyde cross-linking assay) (human (in MCF7 cells)) (UniProt Q9C037).
T1 sequence: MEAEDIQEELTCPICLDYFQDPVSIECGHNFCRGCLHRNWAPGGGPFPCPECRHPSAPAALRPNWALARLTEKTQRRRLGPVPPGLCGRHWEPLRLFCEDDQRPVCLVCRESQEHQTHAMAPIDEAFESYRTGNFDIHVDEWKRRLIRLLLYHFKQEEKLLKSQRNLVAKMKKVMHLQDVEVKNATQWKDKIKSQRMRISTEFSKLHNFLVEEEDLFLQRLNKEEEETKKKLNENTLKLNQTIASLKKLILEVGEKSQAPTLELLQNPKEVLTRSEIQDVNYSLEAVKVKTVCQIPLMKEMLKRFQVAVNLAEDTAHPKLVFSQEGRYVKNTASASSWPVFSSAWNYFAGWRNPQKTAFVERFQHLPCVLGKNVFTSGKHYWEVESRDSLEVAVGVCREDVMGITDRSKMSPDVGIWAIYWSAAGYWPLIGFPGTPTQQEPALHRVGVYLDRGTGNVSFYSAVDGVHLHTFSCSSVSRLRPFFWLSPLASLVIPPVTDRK
In words: cross-linking; mass spectrometry-based formaldehyde cross-linking assay in MCF7 cells; candidate TRIM4 binding proteins identified by mass spectrometry.

Assay [2] deals with T2, endogenous TRIM4 (human (endogenous in MCF7)) (UniProt Q9C037).
T2 sequence: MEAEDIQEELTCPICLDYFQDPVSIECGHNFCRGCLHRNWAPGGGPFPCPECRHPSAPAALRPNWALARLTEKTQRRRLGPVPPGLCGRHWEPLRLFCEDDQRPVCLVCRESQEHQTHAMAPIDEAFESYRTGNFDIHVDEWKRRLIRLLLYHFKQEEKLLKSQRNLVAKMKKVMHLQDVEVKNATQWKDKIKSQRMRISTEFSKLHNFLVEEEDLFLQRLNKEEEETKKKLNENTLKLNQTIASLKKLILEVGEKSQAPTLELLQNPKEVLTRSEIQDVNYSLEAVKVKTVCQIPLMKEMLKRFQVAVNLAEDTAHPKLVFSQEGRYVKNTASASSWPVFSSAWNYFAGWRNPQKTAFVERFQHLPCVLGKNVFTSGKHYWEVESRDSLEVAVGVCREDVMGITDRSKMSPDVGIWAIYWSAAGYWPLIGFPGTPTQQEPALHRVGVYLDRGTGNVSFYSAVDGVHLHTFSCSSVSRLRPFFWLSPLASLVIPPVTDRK
In words: co-IP; endogenous proteins in MCF7 cell lysates; IP with anti-TRIM4 or anti-SET, immunoblot. In general terms: Immunoblotting shows a protein as a band on a membrane.

The target in assay [3] is Myc-SET (wild-type SET) (UniProt Q01105). Briefly: co-IP; HEK293T cells transfected with Flag-TRIM4 (WT or truncation mutants) and Myc-tagged SET (WT or truncation mutants) or H3.3C; lysates 48 h after transfection, IP with anti-Myc or anti-Flag and protein A/G agarose for 8 h, beads washed five times with NP-40 buffer, immunoblot.

These are yes or no findings as the source states them, for the method shown. In cells and extracts the contact can be indirect. Some entries that bind do so weakly or less than the wild type. For part of these data: Where a sequence is shown, tags or fusion partners need not be part of it.

For the molecule “endogenous SET (from UniProt Q01105 1-290)”, the binding entry in assay [1] and in assay [2] was “binds” in each case.

B1: Flag-TRIM4 (wild-type TRIM4) (protein, UniProt Q9C037 1-500)
chain: MEAEDIQEELTCPICLDYFQDPVSIECGHNFCRGCLHRNWAPGGGPFPCPECRHPSAPAALRPNWALARLTEKTQRRRLGPVPPGLCGRHWEPLRLFCEDDQRPVCLVCRESQEHQTHAMAPIDEAFESYRTGNFDIHVDEWKRRLIRLLLYHFKQEEKLLKSQRNLVAKMKKVMHLQDVEVKNATQWKDKIKSQRMRISTEFSKLHNFLVEEEDLFLQRLNKEEEETKKKLNENTLKLNQTIASLKKLILEVGEKSQAPTLELLQNPKEVLTRSEIQDVNYSLEAVKVKTVCQIPLMKEMLKRFQVAVNLAEDTAHPKLVFSQEGRYVKNTASASSWPVFSSAWNYFAGWRNPQKTAFVERFQHLPCVLGKNVFTSGKHYWEVESRDSLEVAVGVCREDVMGITDRSKMSPDVGIWAIYWSAAGYWPLIGFPGTPTQQEPALHRVGVYLDRGTGNVSFYSAVDGVHLHTFSCSSVSRLRPFFWLSPLASLVIPPVTDRK
As for B1, the binding entry in assay [3] was “binds”.
